Source: paper PMC3584131
These are yes or no findings as the source states them, for the method shown. In cells and extracts the contact can be indirect. These calls come from enrichment with a bait or labelling near it, and not all partners need be listed.

Protein sequences, listed by entry. Tags and fused reporters are not part of them.
UniProt Q9QZS3: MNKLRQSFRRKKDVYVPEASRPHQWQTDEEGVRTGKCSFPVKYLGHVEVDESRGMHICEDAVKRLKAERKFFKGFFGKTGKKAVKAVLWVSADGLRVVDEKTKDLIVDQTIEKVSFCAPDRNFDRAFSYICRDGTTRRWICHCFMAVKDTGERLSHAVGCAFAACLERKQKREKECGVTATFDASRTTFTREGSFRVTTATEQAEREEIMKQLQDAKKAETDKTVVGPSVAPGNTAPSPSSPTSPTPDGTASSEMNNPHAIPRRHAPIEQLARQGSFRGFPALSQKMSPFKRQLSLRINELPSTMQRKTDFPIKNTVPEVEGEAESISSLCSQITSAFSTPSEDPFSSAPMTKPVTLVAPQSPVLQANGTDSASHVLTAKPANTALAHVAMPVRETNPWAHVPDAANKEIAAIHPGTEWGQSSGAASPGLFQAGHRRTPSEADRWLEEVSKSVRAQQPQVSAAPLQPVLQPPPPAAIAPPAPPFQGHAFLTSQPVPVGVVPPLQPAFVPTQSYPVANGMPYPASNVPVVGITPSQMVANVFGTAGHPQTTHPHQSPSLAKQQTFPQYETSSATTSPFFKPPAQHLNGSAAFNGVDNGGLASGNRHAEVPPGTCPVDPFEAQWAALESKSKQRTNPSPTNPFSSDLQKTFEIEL

Molecular target: endogenous Numb (CD133+/CD49f+ murine liver TISCs) (mouse (endogenous in murine TISCs)) (UniProt Q9QZS3)
Assay: affinity purification with mass spectrometry; endogenous Numb immunopurified with anti-Numb (H-70) antibody and protein G-PLUS agarose from pooled sucrose gradient fractions 8-13 of murine TISC cytoplasmic lysate; washes in Buffer W (20 mM Tris pH 7.3, 300 mM NaCl, 0.5% triton X-100, 2% glycerol); LC-MS/MS; anti-GFP control

B1: endogenous TBC1D15 (murine TISCs) (protein, UniProt Q9CXF4 1-671)
chain: MAAAGVVSGKIIYEQEGVYIHSSCGKANDQDSLISGILRVLEKDAEVIVDWRPLDDALDSSSILCAGKDSSSVVEWTQAPKERAHRGSDQQSSYEAEWDMVTTVSFKKKPHTNGDAPGHRNGKSKWSFLFSLADLKSVKQSKEGMGWSYLVFCLKDDVMLPALHFHQGDSKLLIESLEKYVVLCESPQDSRTLLVNCQNKSLSQSFENLLDEPAYGLIQKIKKDPYTATMVGFSKVTNYIFDSLRGSDPSTHQRPPSEMADFLSDAIPGLKINQQEEPGFEVITRIDLGERPVVQRREPVSLEEWNKSLDPEGRLVAVESMKQKIFRGGLSHSLRKQAWKFLLGYFPWDSTKEERTQLQKQKTDEYFRMKLQWKSVSEAQEKRNSRLRDYRSLIEKDVNRTDRTNKFYEGQDNPGLILLHDILMTYCMYDFDLGYVQGMSDLLSPLLYVMENEVDAFWCFASYMDQMHQNFEEQMQGMKTQLIQLSTLLRLLDSGFCSYLESQDSGYLYFCFRWLLIRFKREFSFLDILRLWEVMWTELPCKNFHLLLCCAILESEKQQIMAKHYGFNEILKHINELSMKIDVEDILCKAEAISLQMAQCKELPQAVCEILGLQDSEITTPDSDTDENVGSPCPVSAFPSSTLPILAASEAKDDSPTQTLASPNACRLTPA
B1 was tested, and the binding was “binds”.
